Results: PubChem BioAssay AID504834 (National Center for Advancing Translational Sciences (NCATS), 2011)
About 22,000 (6.9%) of roughly 320,000 compounds were called active. The shares of active, inactive and inconclusive entries below differ from those in the screen. Calls follow the shape of the dose curve; as a rule, active = well fitted inhibition curve with a large enough effect; inconclusive = small, poorly fitted or top-dose-only effect, or another doubt; inactive = no such curve, though single readings can be large or run the other way. A potency beside an inconclusive call is a rough fit, not a confirmed value.
% is scaled to controls: 0 for no effect and ±100 for the full control effect; potency is read from the fitted curve at half-maximal effect.

Assay: Primary qHTS for delayed death inhibitors of the malarial parasite plastid, 96 hour incubation
Details: P. falciparum luciferase reporter growth; series mostly up to 28.7 µM; activity change, negative = inhibition: at the top concentration
In short: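 P. falciparum expressing integrated firefly luciferase, in erythrocytes at 2% hematocrit, 0.05% parasitemia, incubated with compounds 96 h at 37 C, 5% CO2. Growth inhibition read as loss of luminescence; two-generation exposure targets delayed-death apicoplast inhibitors.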
For `CCN(CC)C(=S)SCC(=O)c1c(C)[nH]c2ccccc12`, the Potency was inconclusive: 18.5 µM [inhibitor, single point]. For `COc1ccc(/C=C(/NC(=O)c2ccco2)C(=O)N2CCCCC2)cc1`, the “activity change, negative = inhibition” value was inactive: 2.4%. In the case of `Cc1nn(C)c(C(=O)N/N=C/c2cc3c(cc2Br)OCO3)c1Br`, the Potency was inconclusive: 14.7 µM [inhibitor, single point]. For `O=C(c1cnn2c1NC(c1ccc(Br)cc1)CC2C(F)(F)F)N1CCN2CCCC2C1` (centres undefined), the Potency was inconclusive: 14.7 µM [inhibitor, partial curve, poor fit]. In the case of `O=C(c1ccc2c(c1)[nH]c(=S)n1c3ccccc3nc21)N1CCN(c2cccc(Cl)c2)CC1`, the Potency was inconclusive: 10.4 µM [inhibitor, single point]. For `CC1CCc2nc(NC(=O)c3cc(C(C)(C)C)nn3C)sc2C1` (centres undefined), the Potency was active: 8.28 µM. In the case of `Cc1sc(N/N=C/C=C/c2ccccc2)nc1-c1ccccc1`, the Potency was inconclusive: 10.4 µM [inhibitor, single point]. In the case of `CC(C)C[C@H](NC(=O)c1[nH]cnc1C(=O)N[C@@H](Cc1ccccc1)C(=O)OCc1ccccc1)C(=O)OC(C)(C)C`, the Potency was inconclusive: 16.5 µM [inhibitor, single point]. In the case of `Cc1ccc(CNCC(=O)Nc2ccc(C)cc2Br)cc1`, the “activity change, negative = inhibition” value was inactive: 23.1%. With `Cc1ccc(NS(=O)(=O)c2sc3ccc(Cl)cc3c2C)cc1` the Potency was inconclusive: 1.85 µM [inhibitor, full curve, poor fit]. With `CCOC(=O)c1cc2c(=O)n3ccccc3nc2n(C(C)C)c1=NC(=O)c1ccco1` the Potency was inconclusive: 18.5 µM [inhibitor, single point]. With `O=C(CSc1ccc2ccccc2c1Br)Nc1cccc(S(=O)(=O)NC2=NCCCCC2)c1` the Potency was inconclusive: 11.7 µM [inhibitor, partial curve, poor fit]. With `O=C(NCCCNCCCNC(=O)c1ccccn1)c1ccccn1` the “activity change, negative = inhibition” value was inactive: -15.7%. For `CN(C)CCCNC(=O)/C(=C\C=C\c1ccccc1)NC(=O)c1ccc([N+](=O)[O-])cc1`, the Potency was inconclusive: 20.8 µM [inhibitor, single point]. In the case of `COCCNC(=O)C(OC(=O)c1nsc(Cl)c1Cl)C(C)C` (centres undefined), the Potency was inconclusive: 9.28 µM [inhibitor, partial curve, poor fit]. With `COc1cccc(CN(C)C(=O)C2CCN(S(=O)(=O)c3cccs3)CC2)c1OC` the Potency was inconclusive: 13.1 µM [inhibitor, single point]. For `Cc1cc(-c2n[nH]c(=S)n2/N=C/c2ccc(Br)s2)n[nH]1`, the “activity change, negative = inhibition” value was inactive: 15%. In the case of `C=CCN=Cc1sc2ccc(OCC)cc2c1O`, the “activity change, negative = inhibition” value was inactive: 77.6%. For `CC(C)CCN1CCN(Cc2cccc(-n3cccn3)c2)CC1CCO` (centres undefined), the Potency was inconclusive: 18.5 µM [inhibitor, single point]. With `Cc1nn(CC(=O)N2CCc3ccccc3C2)c(C)c1Cl` the Potency was inconclusive: 0.0029 µM [inhibitor, full curve, poor fit]. With `CCOC(=O)C1=C(C)NC2=C(C(=O)CCC2)C1c1ccsc1` (centres undefined) the “activity change, negative = inhibition” value was inactive: 9.68%. In the case of `O=C(NC1CCCCC1)c1ccc(S(=O)(=O)c2ccccc2)cc1`, the Potency was inconclusive: 13.1 µM [inhibitor, single point]. In the case of `CN(C)CCCNC(=O)c1cc(Br)ccc1O`, the “activity change, negative = inhibition” value was inactive: 0.032%. In the case of `O=C(Nc1ccccc1-c1ccccc1)C1CCCN(c2ncccn2)C1` (centres undefined), the Potency was inconclusive: 10.4 µM [inhibitor, partial curve, poor fit]. In the case of `Cc1ccc(C)c(NC(=O)C(OC(=O)c2ccc(CO)cc2)c2ccccc2)c1` (centres undefined), the Potency was inconclusive: 18.5 µM [inhibitor, single point]. In the case of `CCCSc1oc(-c2ccco2)nc1S(=O)(=O)c1ccc(C)cc1`, the “activity change, negative = inhibition” value was inactive: 29%. For `CC(C)(C)c1ccc(-c2nnc(NC(=O)c3ccccc3)s2)cc1`, the “activity change, negative = inhibition” value was inactive: 28.9%. For `CCc1noc(C)c1C(=O)Nc1ccc(-c2nnc3n2CCCCC3)cc1`, the “activity change, negative = inhibition” value was inactive: -3.35%. For `O=C(NCc1ccc2c(c1)OCO2)c1ccc2c(c1)OCO2`, the “activity change, negative = inhibition” value was inactive: -16.4%. With `O=C(COc1ccc2c(c1)CCC2)NCc1ccc(Cl)cc1` the “activity change, negative = inhibition” value was inactive: 26%. In the case of `O=[N+]([O-])c1cc([N+](=O)[O-])c2cc3ccccc3nc2c1`, the “activity change, negative = inhibition” value was inactive: 3.06%. In the case of `O=C(Nc1cn(-c2ccccc2)nc1-c1ccc(F)cc1)c1ccccc1`, the Potency was inconclusive: 11.7 µM [inhibitor, single point]. With `O=C(c1ccc(Cl)s1)N1CCCC1` the Potency was inconclusive: 13.1 µM [inhibitor, single point]. For `COc1ccc(-n2c(SCC(=O)Nc3ccc(Br)cc3)nc(O)cc2=O)cc1`, the “activity change, negative = inhibition” value was inactive: -23.2%. For `CC(=O)c1csc(Nc2ccccc2Cl)n1`, the “activity change, negative = inhibition” value was inactive: 186%. With `CC(C)C(OC(=O)CCC(=O)Nc1nccs1)C(=O)NC1CCCCC1` (centres undefined) the “activity change, negative = inhibition” value was inactive: 35.8%. For `CCn1cc(/C=C(\NC(=O)c2ccc(C)cc2)C(=O)NCCN2CCOCC2)c2ccccc21`, the Potency was inconclusive: 4.65 µM [inhibitor, partial curve]. For `O=C(O)c1cn(Cc2ccccc2)c2ccccc2c1=O`, the “activity change, negative = inhibition” value was inactive: -24%. For `COc1ccc(-n2c(C)cc(C(=O)COC(=O)c3cc(NC(=O)c4cccs4)c(OC)c(OC)c3)c2C)cc1`, the Potency was inconclusive: 1.47 µM [inhibitor, partial curve, poor fit]. For `COc1ccccc1CNC(=O)c1cccc(NC(=O)c2ccccc2)c1`, the “activity change, negative = inhibition” value was inactive: 7.61%. With `CCCc1nc2cc(Cl)c([N+](=O)[O-])cc2o1` the Potency was inconclusive: 18.5 µM [inhibitor, single point]. For `CCn1cc(/C=C2\SC(=O)N(CC(=O)Nc3ccc4c(c3)OCO4)C2=O)c2ccccc21`, the Potency was inconclusive: 0.147 µM [inhibitor, full curve, poor fit]. In the case of `CC1CCN(Cc2c(C(=O)N/N=C/c3ccc(C(C)C)cc3)nnn2-c2nonc2N)CC1`, the Potency was active: 1.65 µM. For `COc1ccc(C2=NOC(Cn3nc(C(=O)O)cc3-c3ccccc3)C2)cc1` (centres undefined), the “activity change, negative = inhibition” value was inactive: 77.7%. For `CCC1CCCCN1CCCNC(=O)c1csc2c1CCCCC2` (centres undefined), the “activity change, negative = inhibition” value was inactive: 17.6%. In the case of `CCOc1ccc(/C=C2\SC(=O)N(c3ccc(O)cc3)C2=O)cc1OC`, the “activity change, negative = inhibition” value was inactive: 35.3%. For `CC(=O)Cc1nsc(Nc2ccc(F)cc2)n1`, the Potency was active: 10.4 µM. In the case of `COc1ccccc1/C=C/C=N/NC(=O)Cc1cccs1`, the “activity change, negative = inhibition” value was inactive: 4.65%. With `Cc1ccn2cc(-c3cccc(S(=O)(=O)N4CC(C)OC(C)C4)c3)nc2c1` (centres undefined) the Potency was inconclusive: 13.1 µM [inhibitor, partial curve, poor fit]. For `CC(=O)Nc1ccc(NC(=O)C(C)OC(=O)/C=C/c2ccc3c(c2)OCO3)cc1` (centres undefined), the “activity change, negative = inhibition” value was inactive: 27.6%. In the case of `COc1ccc2c(c1OC)C(=O)OC2Nc1nc(-c2ccc([N+](=O)[O-])cc2)cs1` (centres undefined), the “activity change, negative = inhibition” value was inactive: 65%. In the case of `CCC(C)(C)NC(=O)C(OC(=O)c1cc2sccc2n1C)c1ccc(OC)cc1` (centres undefined), the Potency was inconclusive: 18.5 µM [inhibitor, single point]. For `COc1ccc(Nc2nc(N)nc(CSc3nccc(C)n3)n2)cc1`, the Potency was active: 5.22 µM. In the case of `Cc1cc(C)nc(NCC(O)CNc2ccccc2Cl)n1` (centres undefined), the “activity change, negative = inhibition” value was inactive: 24.4%. In the case of `Cc1ccc(-c2nc(-c3ccncc3)no2)cc1`, the “activity change, negative = inhibition” value was inactive: 111%. In the case of `Cc1cccc(N2CCN(S(=O)(=O)c3ccc4c(c3)CCC(=O)N4)CC2C)c1` (centres undefined), the Potency was inconclusive: 4.65 µM [inhibitor, partial curve]. For `Cc1ccc(S(=O)(=O)Nc2ccc(O)c(Sc3ncn[nH]3)c2)cc1`, the “activity change, negative = inhibition” value was inactive: -21.1%. For `COc1ccc(N2CCN(C(=O)CC(C)S(=O)(=O)c3ccc4c(c3)NC(=O)CO4)CC2)cc1` (centres undefined), the Potency was inconclusive: 1.65 µM [inhibitor, full curve, poor fit]. For `COc1ccc(S(=O)(=O)N2Cc3ccccc3CC2C(=O)O)cc1OC` (centres undefined), the Potency was inconclusive: 18.5 µM [inhibitor, single point]. For `CCSc1ncc(Cl)c(C(=O)Nc2cc(C)ccc2C)n1`, the Potency was inconclusive: 2.62 µM [inhibitor, single point]. With `C=CCN(CC=C)S(=O)(=O)c1ccc(NC(=S)NC(=O)C2CC2)cc1` the Potency was inconclusive: 10.4 µM [inhibitor, partial curve, poor fit]. In the case of `O=c1oc2ccccc2c(NCc2ccccc2)c1[N+](=O)[O-]`, the Potency was inconclusive: 18.5 µM [inhibitor, single point]. For `CC(=O)C1C(c2ccc(C)cc2)c2c(noc2C)CC1(C)O` (centres undefined), the Potency was inconclusive: 1.04 µM [inhibitor, partial curve, poor fit]. With `COc1ccc(-c2csc(NC(=S)NC(=O)c3ccco3)n2)cc1` the “activity change, negative = inhibition” value was inactive: 11.5%. For `O=C(NCCc1ccc(C(F)(F)F)cc1)C1CC(=O)N(c2ccc3c(c2)OCCO3)C1` (centres undefined), the “activity change, negative = inhibition” value was inactive: -2.46%. With `COc1ccccc1CNCC(O)Cn1c2ccccc2c2ccccc21` (centres undefined) the Potency was active: 2.08 µM. With `N#C/C(=C(/O)CN1C(=O)c2ccccc2C1=O)c1nc2ccccc2[nH]1` the Potency was inconclusive: 1.65 µM [inhibitor, full curve]. For `CC1=NS(=O)(=O)c2cc(Cl)ccc2N1`, the Potency was inconclusive: 9.53 µM [inhibitor, partial curve, poor fit]. With `COc1cccc2c(=O)n(CC(=O)N3CCCc4ccccc43)ccc12` the Potency was inconclusive: 11.7 µM [inhibitor, partial curve, poor fit]. With `O=c1c2cccc3c2c(nn1CN1CCOCC1)-c1ccccc1-3` the Potency was inconclusive: 20.8 µM [inhibitor, partial curve, poor fit]. In the case of `COC(=O)c1cc(OC)c(OC)cc1NCC(=O)Nc1cccc(C(F)(F)F)c1`, the Potency was inconclusive: 18.5 µM [inhibitor, single point]. In the case of `Cc1ccc(-c2csc3nc(C)n(N)c(=O)c23)o1`, the “activity change, negative = inhibition” value was inactive: 89.6%. With `O=C1NCCc2cc3c(cc21)OCO3` the Potency was inconclusive: 9.28 µM [inhibitor, single point]. For `CCn1c(SCC(=O)Nc2ccccc2C(=O)OC)nnc1-c1cccc(C)c1`, the Potency was inconclusive: 11.7 µM [inhibitor, single point].
